Data taken from PubChem BioAssay AID504467 (National Center for Advancing Translational Sciences (NCATS), 2011).
The whole screen tested about 330,000 compounds, of which about 7,700 (2.3%) were called active. Inconclusive means that the source gave no clear call. Such entries were picked first, then a sample of the others. Calls come from the whole dose curve; as a rule, active = well fitted inhibition curve with a large enough effect; inconclusive = small, poorly fitted or top-dose-only effect, or effect the other way; inactive = flat fitted curve, though single readings scatter. A potency beside an inconclusive call is a rough fit, not a confirmed value.

assay: qHTS screen for small molecules that inhibit ELG1-dependent DNA repair in human embryonic kidney (HEK293T) cells expressing luciferase-tagged ELG1; conditions: HEK293T ELG1-luciferase reporter, luminescence, 16 h, DNA damage induced by 5-fluorouridine; activity change, negative = inhibition: at 46.1 µM (top of the series); note: nearly all actives have a fitted effect of over 55% in size
Method in brief: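 HEK293T cells expressing luciferase-tagged ELG1 (2,000/well) received 5-Fluorouridine plus compound or DMSO for 16 hr at 37 °C. Luciferase was read by ONE-Glo luminescence after 30 min at room temperature.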
% is set by controls: 0 for no effect and ±100 for the full control effect; potency is the fitted concentration of half-maximal effect.

| SMILES | Potency | activity change, negative = inhibition |
| --- | --- | --- |
| CCCCOC(=O)Nc1cc(Cl)ccc1C | inconclusive: 20.6 µM [activator, partial curve, poor fit] |  |
| Nc1nnc(SC2CCCC2)s1 | inconclusive: 23.1 µM [activator, partial curve, poor fit] |  |
| Cc1cccc(N=Nc2c(C)[nH]n(-c3ccccc3)c2=O)c1 | inconclusive: 23.1 µM [activator, single point] |  |
| O=C(N/N=C/c1ccco1)c1ccccn1 | inconclusive: 5.17 µM [activator, partial curve, poor fit] |  |
| CCOC(=O)c1ccc2c(c1)n(CC)c(/C=C/Nc1ccccc1)[n+]2CC | inconclusive: 23.1 µM [inhibitor, single point] |  |
| Cc1ccc(NC(=O)CO/N=C/c2ccc(N(C)C)cc2)cc1 | inactive |  |
| COc1ccc(CN2CCC(CO)(Cc3ccccc3C(F)(F)F)CC2)c(F)c1 | inactive |  |
| CC(=NCCN1CCOCC1)C1=C(O)c2ccccc2C1=O | inconclusive: 18.4 µM [activator, single point] |  |
| COCCCn1c(-c2ccc(OC)cc2)nc2nc3ccccc3nc21 | inconclusive: 20.6 µM [activator, partial curve, poor fit] |  |
| O=C(NCCc1c[nH]c2ccccc12)OCCSS(=O)(=O)O | inactive |  |
| O=C(Cn1nnc2c(cnn2-c2ccccc2)c1=O)NCc1cccs1 | inactive |  |
| Clc1ccccc1Nc1nc(-c2ccncc2)nc2ccccc12 | inconclusive: 8.2 µM [inhibitor, partial curve, poor fit] |  |
| CCOP(=O)(OCC)C(C#N)=C1SCN(c2ccc(Cl)cc2)CS1 | inactive |  |
| CN(C)c1ccc(CN2CCCCCC2)cc1 | inactive |  |
| Cc1cccc(Cn2cnc3ccccc32)c1 | inconclusive: 32.6 µM [activator, partial curve, poor fit] |  |
| O=C(NC1CCN(C(=O)Nc2ccccc2Cl)CC1)c1cccc(F)c1 | inactive |  |
| COc1ccc(NC(=O)CCCCCn2nnc3ccccc3c2=O)cc1 | inactive |  |
| Cc1cccc(NC(=O)NCc2ccc3c(c2)cc(C)n3C)c1 | inactive |  |
| CCc1cccc(C)c1NC(=S)NCCc1c(C)[nH]c2ccc(C)cc12 | inactive |  |
| Cc1ccc(S(=O)(=O)CCC(=O)Nc2ccccc2C)cc1 | inactive |  |
| CC(/C=C\c1ccccc1)=C/C(=O)O | inactive |  |
| Cc1cc(C(=O)CN2C(=O)CN(C)C2=O)c(C)n1-c1cccc(S(=O)(=O)N2CCOCC2)c1 | inconclusive: 16.4 µM [inhibitor, single point] |  |
| COc1ccccc1C(=O)N/C(=C\c1ccc(Br)cc1)C(=O)NCCO | inactive |  |
| CCOC(=O)C1Oc2ccccc2C(c2ccoc2)=C1C(=O)OC (stereo not drawn) | inconclusive: 32.6 µM [activator, partial curve, poor fit] |  |
| C=CC[C@H](CC(=O)N(CCO)Cc1ccccc1)C(=O)N[C@H](COC(=O)[C@@H](CC=C)CC(=O)OC(C)(C)C)c1ccccc1 | inconclusive: 25.9 µM [inhibitor, single point] |  |

| SMILES | Potency | activity change, negative = inhibition |
| --- | --- | --- |
| COc1ccc(C(=O)CSc2nnc(CNC(=O)c3ccccc3)o2)cc1 | inactive |  |
| O=C(Nn1cnnc1)c1cc(-c2ccccn2)nc2ccccc12 | inactive |  |
| O=[N+]([O-])c1nn(-c2ccc3c(c2)OCCO3)n(O)c1=NC1CCCC1 | inconclusive: 6.51 µM [activator, partial curve] |  |
| COc1cc(Nc2cc(C)nc3ncnn23)cc(OC)c1 | inconclusive: 20.6 µM [activator, single point] |  |
| O=C(N/N=C/c1cc([N+](=O)[O-])ccc1Cl)c1cnccn1 | inactive |  |
| CCCN1CCN(CCCNC(=O)c2ccc3nc(N4CCCCC4)sc3c2)CC1 | inconclusive: 1.46 µM [activator, partial curve] |  |
| C[C@H](CO)N1C[C@H](C)[C@@H](CN(C)Cc2ccc(C(=O)O)cc2)Oc2c(NC(=O)Cc3ccccc3)cccc2C1=O | inconclusive: 13 µM [activator, single point] |  |
| Cc1cccc(Cc2cnc(NC(=O)c3ccc(C)o3)s2)c1 | inconclusive: 6.51 µM [activator, partial curve] |  |
| COCCn1c(SCC(=O)NCCc2ccccc2)nnc1-c1ccco1 | inactive |  |
| Cc1cc(O)c(C(=O)/C=C/c2ccc(Cl)cc2)c(=O)o1 | inconclusive: 8.2 µM [activator, partial curve, poor fit] |  |
| COc1ccc(Cl)cc1NC(=O)NCC1CCN(Cc2cc(C)ccc2C)CC1 | inconclusive: 23.1 µM [inhibitor, single point] |  |
| CC1CCCN(CC(=O)Nc2ccc(S(=O)(=O)NC3CCCCC3)cc2)C1 (stereo not drawn) | inconclusive: 11.6 µM [inhibitor, partial curve, poor fit] |  |
| CC(=O)N1c2ccc(S(=O)(=O)N(C)CC(=O)NCc3ccc(C)cc3)cc2CC1C (stereo not drawn) | inconclusive: 16.4 µM [inhibitor, partial curve, poor fit] |  |
| Cc1cccc(CCNC(=O)C2CCN(S(=O)(=O)c3c(C)noc3C)CC2)c1 | inactive |  |
| CCc1cccc(NC(=O)CN(c2ccc(OC)cc2)S(=O)(=O)c2c(C)n[nH]c2C)c1 | inactive |  |
| O=C(Nc1nc(COc2ccccc2)cs1)C1CCC1 | inconclusive: 9.2 µM [activator, partial curve] |  |
| CC1CN(S(=O)(=O)c2cccc(C(=O)NCCc3ccc(S(N)(=O)=O)cc3)c2)CC(C)O1 (stereo not drawn) | inactive |  |
| COc1cc2c(cc1NC(=O)c1cc(-c3ccccn3)nc3ccccc13)oc1ccccc12 | inactive |  |
| Cc1ccc(C(=O)Nc2cccnc2)cc1Cl | inconclusive: 14.1 µM [activator, partial curve, poor fit] |  |
| Cc1ccc(S(=O)(=O)NCCOc2nc(N3CCOCC3)nc(N3CCOCC3)n2)cc1 | inconclusive: 20.6 µM [inhibitor, single point] |  |
| C=CCn1c(SCn2nnc3ccccc3c2=O)nnc1-c1ccc(F)cc1 | inactive |  |
| CCn1nc(C)cc1C(=O)N1CCCC(C(=O)c2ccc(OC)cc2C)C1 (stereo not drawn) | inconclusive: 18.3 µM [inhibitor, partial curve] |  |
| CC(C)Oc1ccc(S(=O)(=O)N2CCOCC2)cc1NC(=O)C(C)Oc1ccc(F)cc1 (stereo not drawn) | inconclusive: 18.3 µM [inhibitor, single point] |  |
| O=C(CCc1ccccc1)N1N=C(c2ccncc2)CC1(O)C(F)(F)F (stereo not drawn) | inactive |  |
| CCCCOc1ccc(C2=CSC3=NCCN23)cc1[N+](=O)[O-] | inactive |  |

| SMILES | Potency | activity change, negative = inhibition |
| --- | --- | --- |
| Cc1cc(/C=C2\SC(=S)N(C)C2=O)c(C)n1-c1ccc(O)cc1 | inconclusive: 2.91 µM [activator, full curve] |  |
| CC(=O)c1cccc(NS(=O)(=O)c2cc(-c3cnc(C4CC4)o3)ccc2C)c1 | inconclusive: 16.4 µM [inhibitor, single point] |  |
| CCc1nn(C(CC)C(=O)NCCCN2CC(C)CC(C)C2)c(=O)c2cc3oc(C)cc3n12 (stereo not drawn) | inactive |  |
| O=C(C1CCN(S(=O)(=O)c2ccccc2F)CC1)N1CCCC1 | inactive |  |
| CC(=O)c1ccc(-n2c(-c3cc(-c4ccsc4)n[nH]3)n[nH]c2=S)cc1 | inactive |  |
| COc1ccc(CC(=O)Nc2cccc(/C(C)=N/NC(=O)c3cccc([N+](=O)[O-])c3)c2)cc1 | inconclusive: 23.1 µM [inhibitor, single point] |  |
| COc1ccc(C(=O)CC2(C(=O)O)CCCCC2)cc1 | inactive |  |
| COc1cc(-c2nnc(COC(=O)C3c4ccccc4Oc4ccccc43)o2)cc(OC)c1OC | inconclusive: 20.6 µM [inhibitor, partial curve, poor fit] |  |
| CN1CCN(S(=O)(=O)c2ccc(Cc3ccc(S(=O)(=O)N4CCN(C)CC4)cc3)cc2)CC1 | inconclusive: 29.1 µM [inhibitor, single point] |  |
| Oc1ccc(Br)cc1/C=N/Nc1nc(N2CCCCC2)nc(N2CCOCC2)n1 | inconclusive: 16.4 µM [inhibitor, partial curve, poor fit] |  |
| CC(C)(C)c1cc(CN2CCN(CCO)CC2)cc(C(C)(C)C)c1O | inactive |  |
| COCCNC(=O)C(=O)N/N=C(\C)CC(=O)Nc1ccc(Cl)cc1Cl |  | inconclusive: 13.2% [activator] |
| Cc1ccc(C)c(C(=O)OCC(=O)N(C)c2ccccc2)c1 | inactive |  |
| NCCCCCc1nnc(SCc2cccc(Cl)c2)o1 | inactive |  |
| C=CC[C@@H](CC(=O)OC(C)(C)C)C(=O)OC[C@H]1CCCN1C(=O)[C@@H](CC=C)CC(=O)N(CCO)Cc1ccccc1 | inactive |  |
| CN(C)S(=O)(=O)N1CCN(c2ccc([N+](=O)[O-])c(N3CCOCC3)c2)CC1 | inconclusive: 10.3 µM [inhibitor, partial curve, poor fit] |  |
| COc1ccc(NC(=O)CSCC(=O)N2CCN(C(=O)c3ccco3)CC2)cc1 | inconclusive: 11.6 µM [activator, single point] |  |
| CC(=O)Nc1ccc(/C=N/NC(=O)c2cccs2)cc1 | inconclusive: 20.6 µM [activator, partial curve] |  |
| Cc1cccc(N(C(=O)CCC(=O)Nc2cc(C)on2)C(C(=O)NC2CCCC2)c2ccc(C)o2)c1 (stereo not drawn) | inconclusive: 18.3 µM [inhibitor, single point] |  |
| COc1cc2c(cc1OC)CN(C(=O)COc1ccc(C)c(C)c1)CC2 | active: 18.4 µM |  |
| CCn1cc(C(=O)NCCCOC)c(=O)c2cc(S(=O)(=O)N3CCCC3)ccc21 | inactive |  |
| c1csc(-c2cnc3ccccc3n2)c1 | inconclusive: 16.4 µM [activator, partial curve] |  |
| COc1ccc(NS(=O)(=O)c2cc(NC(=O)c3cccnc3Cl)ccc2N2CCCC2)cc1 | inactive |  |

Arranged by heavy-atom count (descending): five of the compounds above

| SMILES | Potency | activity change, negative = inhibition |
| --- | --- | --- |
| CCc1nn(C(CC)C(=O)NCCCN2CC(C)CC(C)C2)c(=O)c2cc3oc(C)cc3n12 (stereo not drawn) | inactive |  |
| COc1ccc(Cl)cc1NC(=O)NCC1CCN(Cc2cc(C)ccc2C)CC1 | inconclusive: 23.1 µM [inhibitor, single point] |  |
| COCCCn1c(-c2ccc(OC)cc2)nc2nc3ccccc3nc21 | inconclusive: 20.6 µM [activator, partial curve, poor fit] |  |
| Cc1cccc(Cc2cnc(NC(=O)c3ccc(C)o3)s2)c1 | inconclusive: 6.51 µM [activator, partial curve] |  |
| COc1ccc(C(=O)CC2(C(=O)O)CCCCC2)cc1 | inactive |  |
